Sequences of proteins named here, by UniProt entry; tags and fusion partners are left off. A change or cut given only in a name is not applied to a line headed by its entry.
UniProt Q96NB2: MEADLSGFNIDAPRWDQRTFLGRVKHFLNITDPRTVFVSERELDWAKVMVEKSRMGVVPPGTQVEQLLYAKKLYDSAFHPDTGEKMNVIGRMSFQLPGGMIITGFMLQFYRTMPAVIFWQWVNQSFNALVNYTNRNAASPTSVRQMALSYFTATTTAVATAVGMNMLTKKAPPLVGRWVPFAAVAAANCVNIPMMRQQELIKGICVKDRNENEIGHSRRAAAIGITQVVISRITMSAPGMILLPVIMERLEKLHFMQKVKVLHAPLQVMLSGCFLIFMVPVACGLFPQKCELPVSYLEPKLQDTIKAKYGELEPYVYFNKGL
UniProt O43765: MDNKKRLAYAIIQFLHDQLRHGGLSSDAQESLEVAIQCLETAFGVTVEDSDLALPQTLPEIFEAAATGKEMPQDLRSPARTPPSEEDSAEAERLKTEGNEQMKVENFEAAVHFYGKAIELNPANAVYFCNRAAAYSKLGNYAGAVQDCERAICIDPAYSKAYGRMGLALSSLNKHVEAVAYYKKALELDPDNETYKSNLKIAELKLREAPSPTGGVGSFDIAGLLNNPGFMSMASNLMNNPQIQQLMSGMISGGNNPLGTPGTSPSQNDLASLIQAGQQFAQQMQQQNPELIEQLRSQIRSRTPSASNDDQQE
UniProt Q9HD40: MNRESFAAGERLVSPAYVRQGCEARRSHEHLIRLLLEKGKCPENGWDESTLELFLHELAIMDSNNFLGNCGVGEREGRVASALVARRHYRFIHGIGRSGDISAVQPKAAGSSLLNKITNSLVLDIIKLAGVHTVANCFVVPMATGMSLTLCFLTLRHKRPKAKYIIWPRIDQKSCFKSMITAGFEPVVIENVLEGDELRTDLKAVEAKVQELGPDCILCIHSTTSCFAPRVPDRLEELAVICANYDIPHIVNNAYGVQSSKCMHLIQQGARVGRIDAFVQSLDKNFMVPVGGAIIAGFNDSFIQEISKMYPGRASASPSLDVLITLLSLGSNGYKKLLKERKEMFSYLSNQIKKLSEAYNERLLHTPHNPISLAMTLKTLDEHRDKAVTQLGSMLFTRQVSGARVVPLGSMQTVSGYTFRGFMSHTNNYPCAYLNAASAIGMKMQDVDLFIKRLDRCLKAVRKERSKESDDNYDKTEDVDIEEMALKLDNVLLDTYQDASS
UniProt Q9NRX5: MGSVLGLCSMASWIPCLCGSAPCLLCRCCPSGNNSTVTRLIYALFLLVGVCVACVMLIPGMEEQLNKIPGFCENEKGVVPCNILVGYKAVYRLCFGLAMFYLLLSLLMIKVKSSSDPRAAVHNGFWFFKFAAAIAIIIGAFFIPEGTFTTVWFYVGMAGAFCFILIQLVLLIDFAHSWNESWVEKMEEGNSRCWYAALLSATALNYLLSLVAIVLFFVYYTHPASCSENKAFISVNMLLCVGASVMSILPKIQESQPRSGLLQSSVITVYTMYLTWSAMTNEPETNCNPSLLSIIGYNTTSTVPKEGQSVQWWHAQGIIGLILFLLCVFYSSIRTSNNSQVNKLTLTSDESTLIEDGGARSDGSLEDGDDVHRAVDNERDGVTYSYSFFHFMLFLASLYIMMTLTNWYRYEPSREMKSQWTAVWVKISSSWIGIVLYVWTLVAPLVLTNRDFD
UniProt Q86TU7: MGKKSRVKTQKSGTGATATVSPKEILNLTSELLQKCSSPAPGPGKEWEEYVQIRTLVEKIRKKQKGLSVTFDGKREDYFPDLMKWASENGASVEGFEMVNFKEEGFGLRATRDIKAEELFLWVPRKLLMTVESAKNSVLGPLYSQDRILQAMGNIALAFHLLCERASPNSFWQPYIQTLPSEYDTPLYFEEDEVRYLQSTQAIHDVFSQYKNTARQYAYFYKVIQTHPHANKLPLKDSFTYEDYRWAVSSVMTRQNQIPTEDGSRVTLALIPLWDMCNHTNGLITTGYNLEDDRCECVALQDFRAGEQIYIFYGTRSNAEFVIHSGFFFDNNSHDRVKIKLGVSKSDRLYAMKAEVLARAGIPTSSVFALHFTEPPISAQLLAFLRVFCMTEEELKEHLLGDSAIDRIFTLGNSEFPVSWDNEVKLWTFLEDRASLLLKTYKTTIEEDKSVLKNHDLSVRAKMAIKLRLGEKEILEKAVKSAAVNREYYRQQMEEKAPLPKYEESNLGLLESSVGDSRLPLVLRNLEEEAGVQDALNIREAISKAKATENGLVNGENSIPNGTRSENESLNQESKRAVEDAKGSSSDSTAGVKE
UniProt Q9UHD8: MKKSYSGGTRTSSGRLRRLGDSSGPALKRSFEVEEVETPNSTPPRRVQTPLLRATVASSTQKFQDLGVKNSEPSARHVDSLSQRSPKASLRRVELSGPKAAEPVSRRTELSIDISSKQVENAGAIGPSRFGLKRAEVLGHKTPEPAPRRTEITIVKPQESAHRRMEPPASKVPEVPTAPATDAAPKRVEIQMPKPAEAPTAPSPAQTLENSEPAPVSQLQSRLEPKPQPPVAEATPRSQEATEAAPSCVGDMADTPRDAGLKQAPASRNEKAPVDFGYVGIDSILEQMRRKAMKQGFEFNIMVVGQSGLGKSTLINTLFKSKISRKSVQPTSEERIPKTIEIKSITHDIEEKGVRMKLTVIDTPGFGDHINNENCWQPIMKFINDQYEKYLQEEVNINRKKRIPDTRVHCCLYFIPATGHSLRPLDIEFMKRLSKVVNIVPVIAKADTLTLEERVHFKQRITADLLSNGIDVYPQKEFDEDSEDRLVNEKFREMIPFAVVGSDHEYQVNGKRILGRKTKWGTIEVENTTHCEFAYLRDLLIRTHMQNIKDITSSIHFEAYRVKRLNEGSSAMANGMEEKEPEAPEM
UniProt O43236: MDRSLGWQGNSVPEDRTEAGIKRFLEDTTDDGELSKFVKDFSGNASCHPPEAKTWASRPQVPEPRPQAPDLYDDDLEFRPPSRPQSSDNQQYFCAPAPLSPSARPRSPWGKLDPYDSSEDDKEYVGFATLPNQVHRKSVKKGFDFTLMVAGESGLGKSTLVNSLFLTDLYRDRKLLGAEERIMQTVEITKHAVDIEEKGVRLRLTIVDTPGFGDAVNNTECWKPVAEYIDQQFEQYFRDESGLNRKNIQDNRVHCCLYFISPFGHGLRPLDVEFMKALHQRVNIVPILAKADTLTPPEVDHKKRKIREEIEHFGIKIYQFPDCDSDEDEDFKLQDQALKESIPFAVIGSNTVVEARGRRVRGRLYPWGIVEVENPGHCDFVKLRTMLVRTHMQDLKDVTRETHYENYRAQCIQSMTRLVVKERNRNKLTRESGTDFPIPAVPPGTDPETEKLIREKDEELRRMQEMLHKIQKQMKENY
UniProt Q8IZQ5, whole entry, looked up: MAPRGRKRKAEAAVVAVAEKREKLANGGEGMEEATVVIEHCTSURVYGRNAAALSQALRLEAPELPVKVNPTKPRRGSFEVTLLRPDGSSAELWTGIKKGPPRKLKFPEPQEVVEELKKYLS
UniProt P63208, whole entry, looked up: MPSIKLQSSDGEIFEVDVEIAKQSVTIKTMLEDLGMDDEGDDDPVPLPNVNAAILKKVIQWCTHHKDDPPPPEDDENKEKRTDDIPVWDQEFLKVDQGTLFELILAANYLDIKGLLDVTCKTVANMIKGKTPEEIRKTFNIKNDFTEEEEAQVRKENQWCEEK
UniProt Q9NR46: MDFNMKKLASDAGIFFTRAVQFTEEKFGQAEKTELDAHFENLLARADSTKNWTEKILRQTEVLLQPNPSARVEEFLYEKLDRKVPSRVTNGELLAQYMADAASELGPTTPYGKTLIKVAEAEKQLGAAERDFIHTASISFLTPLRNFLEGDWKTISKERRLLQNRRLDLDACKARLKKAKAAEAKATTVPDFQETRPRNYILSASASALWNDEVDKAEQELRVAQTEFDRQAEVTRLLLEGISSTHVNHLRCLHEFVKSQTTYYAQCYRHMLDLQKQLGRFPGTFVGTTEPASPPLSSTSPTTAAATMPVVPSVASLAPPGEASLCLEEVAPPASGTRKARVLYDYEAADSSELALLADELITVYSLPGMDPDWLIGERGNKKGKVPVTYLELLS
UniProt Q13530: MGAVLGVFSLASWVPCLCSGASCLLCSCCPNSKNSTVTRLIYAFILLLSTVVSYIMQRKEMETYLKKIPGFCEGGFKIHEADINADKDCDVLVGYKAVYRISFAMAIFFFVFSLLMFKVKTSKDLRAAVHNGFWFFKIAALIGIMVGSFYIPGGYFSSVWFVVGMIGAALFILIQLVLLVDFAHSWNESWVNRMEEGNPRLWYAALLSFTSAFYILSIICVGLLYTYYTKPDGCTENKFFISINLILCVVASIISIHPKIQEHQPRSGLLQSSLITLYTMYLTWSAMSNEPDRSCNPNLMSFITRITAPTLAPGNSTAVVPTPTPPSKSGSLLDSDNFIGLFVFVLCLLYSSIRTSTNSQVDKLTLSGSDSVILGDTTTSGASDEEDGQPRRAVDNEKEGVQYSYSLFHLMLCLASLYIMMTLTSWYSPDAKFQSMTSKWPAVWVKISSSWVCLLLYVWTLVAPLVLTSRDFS
UniProt Q68CR1: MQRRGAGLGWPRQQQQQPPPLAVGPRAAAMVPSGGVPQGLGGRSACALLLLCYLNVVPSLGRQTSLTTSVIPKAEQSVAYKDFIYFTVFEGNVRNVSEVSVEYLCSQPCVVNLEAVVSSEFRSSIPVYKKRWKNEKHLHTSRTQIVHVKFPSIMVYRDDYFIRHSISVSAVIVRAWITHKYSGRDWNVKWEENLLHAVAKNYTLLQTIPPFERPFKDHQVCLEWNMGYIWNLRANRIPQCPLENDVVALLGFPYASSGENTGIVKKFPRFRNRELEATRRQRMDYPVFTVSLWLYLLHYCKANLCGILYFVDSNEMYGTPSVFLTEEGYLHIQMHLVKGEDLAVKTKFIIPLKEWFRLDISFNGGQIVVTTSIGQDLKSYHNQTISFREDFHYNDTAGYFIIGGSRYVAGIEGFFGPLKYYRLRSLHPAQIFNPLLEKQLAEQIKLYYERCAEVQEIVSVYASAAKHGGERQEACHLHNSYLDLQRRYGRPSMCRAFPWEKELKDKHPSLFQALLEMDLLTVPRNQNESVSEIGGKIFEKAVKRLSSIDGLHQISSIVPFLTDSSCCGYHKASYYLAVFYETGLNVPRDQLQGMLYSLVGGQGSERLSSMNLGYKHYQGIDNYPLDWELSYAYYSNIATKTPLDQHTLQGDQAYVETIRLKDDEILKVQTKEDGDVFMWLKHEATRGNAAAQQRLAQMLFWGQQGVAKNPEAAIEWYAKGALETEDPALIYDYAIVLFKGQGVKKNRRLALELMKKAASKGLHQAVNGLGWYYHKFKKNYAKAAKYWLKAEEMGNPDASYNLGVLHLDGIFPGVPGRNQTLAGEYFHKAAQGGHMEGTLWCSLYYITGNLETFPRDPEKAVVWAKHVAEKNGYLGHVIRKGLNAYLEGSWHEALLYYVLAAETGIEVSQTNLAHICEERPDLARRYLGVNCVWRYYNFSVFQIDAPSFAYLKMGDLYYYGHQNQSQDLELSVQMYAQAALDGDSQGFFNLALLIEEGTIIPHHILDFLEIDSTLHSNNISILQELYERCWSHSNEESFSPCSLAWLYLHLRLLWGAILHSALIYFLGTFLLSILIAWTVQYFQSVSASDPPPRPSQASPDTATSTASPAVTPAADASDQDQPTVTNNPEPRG
UniProt Q8TD22: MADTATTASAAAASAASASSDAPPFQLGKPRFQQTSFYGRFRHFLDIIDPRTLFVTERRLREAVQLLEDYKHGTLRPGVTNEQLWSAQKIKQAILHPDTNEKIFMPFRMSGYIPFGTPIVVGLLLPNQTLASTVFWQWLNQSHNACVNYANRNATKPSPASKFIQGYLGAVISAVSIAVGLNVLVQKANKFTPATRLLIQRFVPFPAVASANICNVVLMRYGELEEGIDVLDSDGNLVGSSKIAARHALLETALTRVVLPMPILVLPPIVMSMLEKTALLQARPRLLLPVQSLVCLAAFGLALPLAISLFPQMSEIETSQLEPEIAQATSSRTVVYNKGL
UniProt Q8IXJ6: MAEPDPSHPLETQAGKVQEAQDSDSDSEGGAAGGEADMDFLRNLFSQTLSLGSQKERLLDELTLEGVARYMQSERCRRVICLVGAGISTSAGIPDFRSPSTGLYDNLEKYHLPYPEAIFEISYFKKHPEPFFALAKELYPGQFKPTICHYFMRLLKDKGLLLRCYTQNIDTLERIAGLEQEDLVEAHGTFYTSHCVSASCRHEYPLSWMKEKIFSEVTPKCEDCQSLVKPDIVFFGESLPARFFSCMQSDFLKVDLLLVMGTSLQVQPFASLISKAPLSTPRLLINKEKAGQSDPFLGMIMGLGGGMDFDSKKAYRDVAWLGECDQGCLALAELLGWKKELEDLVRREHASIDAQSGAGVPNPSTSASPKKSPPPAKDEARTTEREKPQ
UniProt Q99720, whole entry, looked up: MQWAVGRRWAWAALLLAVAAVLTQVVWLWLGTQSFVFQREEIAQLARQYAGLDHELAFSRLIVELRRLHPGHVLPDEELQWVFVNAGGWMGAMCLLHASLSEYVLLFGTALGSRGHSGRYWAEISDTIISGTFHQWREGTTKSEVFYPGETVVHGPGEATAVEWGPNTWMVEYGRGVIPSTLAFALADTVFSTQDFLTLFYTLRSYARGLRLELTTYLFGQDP

The other results are listed elsewhere or left out.
What follows are targets tested with C#Cc1cccc(Nc2ncnc3cc(OCCOC)c(OCCOC)cc23)c1 [erlotinib] (assay: log2 fold change, soluble protein after heating vs DMSO (PISA); higher = thermal stabilisation; K562 cells, 10 uM, 30 min; active = over 0.2 and 3.5 SD of the protein, either way, in both replicates (recomputed)).
In short: (§1)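 K562 cells at 2×10^6 cells/mL were exposed to 10 μM compound for 30 min, then aliquots were heated for 3 min across 48°C-58°C, pooled, and extracted in PBS containing 0.5% NP-40 at 4°C. The supernatant after 21,000xg for 90 min was taken as soluble protein and measured by TMTpro 16plex LC-MS/MS with channel sums equalised. Thermal stability is reported relative to control samples, with values from duplicates. Fold changes are given on a log2 scale.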
In the case of SFXN2 (UniProt Q96NB2), the log2 fold change is reported as inactive: 0.09. SESN2 (UniProt P58004) was tested, and the log2 fold change was inactive: 0.154. SGPL1 (UniProt O95470) was tested, and the log2 fold change was inactive: -0.038. For SGTA (UniProt O43765), the log2 fold change was inactive: -0.069. With SIDT2 isoform 2 (UniProt Q8NBJ9) the log2 fold change was inactive: 0.007. In the case of SHOC2 (UniProt Q9UQ13), the log2 fold change is reported as inactive: -0.03. SEPSECS (UniProt Q9HD40) was tested, and the log2 fold change was inactive: 0.015. For SERINC1 (UniProt Q9NRX5), the log2 fold change was inactive: -0.034. For SERPINF1 (UniProt P36955), the log2 fold change was inactive: -0.069. For SIN3A (UniProt Q96ST3), the log2 fold change was inactive: -0.011. In the case of SEH1L isoform 1 (UniProt Q96EE3), the log2 fold change is reported as inactive: 0.018. With SETD3 (UniProt Q86TU7) the log2 fold change was inactive: 0.01. For SEPTIN9 (UniProt Q9UHD8), the log2 fold change was inactive: 0.033. SEPTIN4 isoform 4 (UniProt O43236) was tested, and the log2 fold change was inactive: 0.02. SHCBP1 (UniProt Q8NEM2) was tested, and the log2 fold change was inactive: -0.013. For SENP6 (UniProt Q9GZR1), the log2 fold change was inactive: 0.028. SELENOH (UniProt Q8IZQ5) was tested, and the log2 fold change was inactive: 0.032. SETMAR (UniProt Q53H47) was tested, and the log2 fold change was inactive: 0.004. With SKP1 (UniProt P63208) the log2 fold change was inactive: -0.003. SH3GLB2 (UniProt Q9NR46) was tested, and the log2 fold change was inactive: 0.048. For SEPHS2 (UniProt Q99611), the log2 fold change was inactive: 0.011. For SERPINA7 (UniProt P05543), the log2 fold change was inactive: -0.118. SERPINB6, A0A087X1N8 was tested, and the log2 fold change was inactive: -0.007. For SHC1 isoform 6 (UniProt P29353), the log2 fold change was inactive: 0.029. With SERINC3 (UniProt Q13530) the log2 fold change was inactive: -0.051. With SEL1L3 (UniProt Q68CR1) the log2 fold change was inactive: 0.059. In the case of SFXN5 (UniProt Q8TD22), the log2 fold change is reported as inactive: -0.077. SH3GL1 (UniProt Q99961) was tested, and the log2 fold change was inactive: 0.024. With SEPTIN5 (UniProt Q99719) the log2 fold change was inactive: 0.009. SIRT2 (UniProt Q8IXJ6) was tested, and the log2 fold change was inactive: 0.03. SIGMAR1 (UniProt Q99720) was tested, and the log2 fold change was inactive: -0.009. In the case of SELENOF (UniProt O60613), the log2 fold change is reported as inactive: -0.017.

These targets were tested with C/C(=N\NC(=O)C1=CC(=CC=C1)S(=O)(=O)N2CCOCC2)/C3=C(C=CC(=C3)Cl)O in the same assay as above.
In short: as §1
With SFXN2 (UniProt Q96NB2) the log2 fold change was inactive: -0.065. In the case of SESN2 (UniProt P58004), the log2 fold change is reported as inactive: 0.108. In the case of SGPL1 (UniProt O95470), the log2 fold change is reported as inactive: -0.019. In the case of SGTA (UniProt O43765), the log2 fold change is reported as inactive: 0.014. SIDT2 isoform 2 (UniProt Q8NBJ9) was tested, and the log2 fold change was inactive: 0.026. In the case of SHOC2 (UniProt Q9UQ13), the log2 fold change is reported as inactive: 0.048. For SEPSECS (UniProt Q9HD40), the log2 fold change was inactive: 0.024. For SERINC1 (UniProt Q9NRX5), the log2 fold change was inactive: -0.023. For SERPINF1 (UniProt P36955), the log2 fold change was inactive: -0.049. In the case of SIN3A (UniProt Q96ST3), the log2 fold change is reported as inactive: 0.008. In the case of SEH1L isoform 1 (UniProt Q96EE3), the log2 fold change is reported as inactive: 0.073. In the case of SETD3 (UniProt Q86TU7), the log2 fold change is reported as inactive: -0.007. With SEPTIN9 (UniProt Q9UHD8) the log2 fold change was inactive: -0.005. For SEPTIN4 isoform 4 (UniProt O43236), the log2 fold change was inactive: 0.168. With SHCBP1 (UniProt Q8NEM2) the log2 fold change was inactive: -0.029. In the case of SENP6 (UniProt Q9GZR1), the log2 fold change is reported as inactive: 0.033. With SELENOH (UniProt Q8IZQ5) the log2 fold change was inactive: 0.013. In the case of SETMAR (UniProt Q53H47), the log2 fold change is reported as inactive: -0.044. In the case of SKP1 (UniProt P63208), the log2 fold change is reported as inactive: -0.036. With SH3GLB2 (UniProt Q9NR46) the log2 fold change was inactive: 0.081. With SEPHS2 (UniProt Q99611) the log2 fold change was inactive: 0.024. With SERPINA7 (UniProt P05543) the log2 fold change was inactive: -0.1. SERPINB6, A0A087X1N8 was tested, and the log2 fold change was inactive: 0.013. In the case of SHC1 isoform 6 (UniProt P29353), the log2 fold change is reported as inactive: -0.006. With SERINC3 (UniProt Q13530) the log2 fold change was inactive: 0.016. For SEL1L3 (UniProt Q68CR1), the log2 fold change was inactive: -0.006. SFXN5 (UniProt Q8TD22) was tested, and the log2 fold change was inactive: 0.09. In the case of SH3GL1 (UniProt Q99961), the log2 fold change is reported as inactive: 0.068. For SEPTIN5 (UniProt Q99719), the log2 fold change was inactive: 0.014. With SIRT2 (UniProt Q8IXJ6) the log2 fold change was inactive: 0.055. For SIGMAR1 (UniProt Q99720), the log2 fold change was inactive: -0.069. For SELENOF (UniProt O60613), the log2 fold change was inactive: -0.044.

These targets were tested with C1=CC(=C(C=C1Cl)C2=NC3=NC=CN=C3C(=N2)NC4=CC=NC=C4)F in the same assay as above.
In short: as §1
For SFXN2 (UniProt Q96NB2), the log2 fold change was inactive: 0.099. SESN2 (UniProt P58004) was tested, and the log2 fold change was inactive: -0.039. In the case of SGPL1 (UniProt O95470), the log2 fold change is reported as inactive: -0.088. For SGTA (UniProt O43765), the log2 fold change was inactive: 0.068. In the case of SIDT2 isoform 2 (UniProt Q8NBJ9), the log2 fold change is reported as inactive: -0.027. With SHOC2 (UniProt Q9UQ13) the log2 fold change was inactive: 0.004. With SEPSECS (UniProt Q9HD40) the log2 fold change was inactive: 0.066. SERINC1 (UniProt Q9NRX5) was tested, and the log2 fold change was inactive: -0.006. SERPINF1 (UniProt P36955) was tested, and the log2 fold change was inactive: -0.033. With SIN3A (UniProt Q96ST3) the log2 fold change was inactive: -0.077. With SEH1L isoform 1 (UniProt Q96EE3) the log2 fold change was inactive: 0.012. With SETD3 (UniProt Q86TU7) the log2 fold change was inactive: 0.04. For SEPTIN9 (UniProt Q9UHD8), the log2 fold change was inactive: 0.069. SEPTIN4 isoform 4 (UniProt O43236) was tested, and the log2 fold change was inactive: 0.118. With SHCBP1 (UniProt Q8NEM2) the log2 fold change was inactive: -0.027. In the case of SENP6 (UniProt Q9GZR1), the log2 fold change is reported as active: 0.237. With SELENOH (UniProt Q8IZQ5) the log2 fold change was inactive: -0.013. For SETMAR (UniProt Q53H47), the log2 fold change was inactive: 0.046. With SKP1 (UniProt P63208) the log2 fold change was inactive: 0.05. SH3GLB2 (UniProt Q9NR46) was tested, and the log2 fold change was inactive: -0.044. SEPHS2 (UniProt Q99611) was tested, and the log2 fold change was inactive: 0.07. With SERPINA7 (UniProt P05543) the log2 fold change was inactive: -0.024. For SERPINB6, A0A087X1N8, the log2 fold change was inactive: 0.042. With SHC1 isoform 6 (UniProt P29353) the log2 fold change was inactive: -0.011. In the case of SERINC3 (UniProt Q13530), the log2 fold change is reported as inactive: -0.064. SEL1L3 (UniProt Q68CR1) was tested, and the log2 fold change was inactive: -0.064. In the case of SFXN5 (UniProt Q8TD22), the log2 fold change is reported as inactive: -0.02. With SH3GL1 (UniProt Q99961) the log2 fold change was inactive: 0.013. For SEPTIN5 (UniProt Q99719), the log2 fold change was inactive: 0.021. SIRT2 (UniProt Q8IXJ6) was tested, and the log2 fold change was inactive: 0.001. In the case of SIGMAR1 (UniProt Q99720), the log2 fold change is reported as inactive: 0.098. In the case of SELENOF (UniProt O60613), the log2 fold change is reported as inactive: -0.023.

Source: the supplement of paper PMC10849652
